From US6358941B1, “Treatment of arthritis disorders, rheumatoid arthritis and manifestations associated with rheumatoid disorders” (priority 1996, dated 2002)
Entries after “also recorded” stand apart in the source; their conditions may differ. At least one compound was matched to its structure with a doubt left.

Columns and labels:
[1] = system: haemolysate cholinesterase (erythrocyte acetylcholinesterase); test: Cholinesterase activity in haemolysed whole blood (Sigma Diagnostics Cholinesterase (PTC) kit); format: biochemical, human; settings: no galantamine = 1.00, blood samples from 3 patients
Description: SIGMA DIAGNOSTICS® CHOLINESTERASE (PTC) kit, available from Sigma Diagnostics, can be used for determining the activity and selectivity of cholinesterase inhibitors.
Reactions involved in the cholinesterase assay are as follows:
Propionylthiocholine+H2O→Propionic Acid+Thiocholine
Thiocholine+5, 5′-Dithiobis-2-Nitrobenzoic Acid→5-Thio-2-Nitrobenzoic Acid
5-Thio-2-Nitrobenzoic Acid is assessed by measuring the absorbance at 405 nm. The rate of change in absorbance at 405 nm is directly proporational to cholinesterase activity.
The activity of erythrocyte cholinesterase may be calculated on the basis of the measurement of butyrylcholinesterase (pseudocholinesterase) in serum and cholinesterase in haemolyzed whole blood (haemolysate), both measured simultaneously by the method described above, and evaluated according to the haematocrit value according to the formula
HChE=(EChE×Hctg*)+(PChE×(1-Hct*))
In the above formulae, EChE is erythrocyte cholinesterase activity, PChE is plasma cholinesterase activity, HChE is haemolysate cholinesterase activity, and Hct is haematocrit value of the sample.
Another way of assessing the cholinesterase activity is to measure the plasma cholinesterase and the cholinesterase in purified haemolyzed erythrocytes. By doing this, the values are obtained directly.
Blood samples from 3 patients were tested with the Sigma test. […]

[2] = system: patients with rheumatoid arthritis; test: Treatment of patients with rheumatoid arthritis (Example 4); format: in vivo, human
[3] = system: patient with Rheumatoid Arthritis and anaemia; test: Treatment of a patient with anaemia of chronic disorder (Example 6); format: in vivo, human; settings: two weeks' treatment, 15 mg per day
Description: The patient was treated in the period between Jan. 3, 1997 and Jan. 20, 1997.

Structure (SMILES): COc1ccc2c3c1O[C@H]1C[C@@H](O)C=C[C@@]31CCN(C)C2 [galantamine]
- Haemolysate ChE activity ([1]; 1.25 μg/ml galantamine added in vitro): 0.96
- Haemolysate ChE activity ([1]; 2.50 μg/ml galantamine added in vitro): 0.86
- symptoms when treatment was interrupted ([2]; most of the ten patients): relapse of their symptoms
- fatigue syndrome resulting from rheumatoid arthritis ([2]; ten patients, 10 mg 3 times per day): improve with respect to their fatique syndrome; also recorded: improve with respect to their fatigue syndrome
- articular pain ([2]; ten patients, 10 mg 3 times per day, spontaneously reported): less articular pain
- inflammatory process of affected joints ([2]; ten patients, 10 mg 3 times per day, evidenced by less swollen and less painful joints): less active
- other clinical signs and symptoms [3]: improved considerably
